# Structures can show the parent of a compound that is named as a salt. ± gives the standard deviation of the averaged measurements. The list shows a part of the results. The data scatter; read single values as rough.
# Experiments:
# hAMSC donor 1 [1] = experiment: Hoechst total cell count ratio vs vehicle control; higher = more cells (less toxicity)
# hAMSC donor 2 [2] = experiment: as above
# hAMSC donor 1 [3] = experiment: transgenic luciferase activity (RLU/mg protein) fold change vs vehicle control (ratio); higher = more transgene expression
# hAMSC donor 2 [4] = experiment: as above
# hAMSC donor 1 [5] = experiment: transfection efficiency (EGFP+ cells / Hoechst count) fold change vs vehicle control (ratio); hAMSC are human adipose-derived mesenchymal stem cells given an EGFP-luciferase plasmid by lipofection; higher = enhanced transfection
# hAMSC donor 2 [6] = experiment: as above
# [7] = priming compound concentration 0.2 µM
# [8] = priming compound concentration 1.7 µM
# [9] = priming compound concentration 13 µM
SMILES,Hoechst total cell count ratio (hAMSC donor 1 [1]; [7]),Hoechst total cell count ratio (hAMSC donor 1 [1]; [8]),Hoechst total cell count ratio (hAMSC donor 1 [1]; [9]),Hoechst total cell count ratio (hAMSC donor 2 [2]; [7]),Hoechst total cell count ratio (hAMSC donor 2 [2]; [8]),Hoechst total cell count ratio (hAMSC donor 2 [2]; [9]),transgenic luciferase activity (hAMSC donor 1 [3]; [8]),transgenic luciferase activity (hAMSC donor 2 [4]; [7]),transgenic luciferase activity (hAMSC donor 2 [4]; [8]),transgenic luciferase activity (hAMSC donor 2 [4]; [9]),transfection efficiency (hAMSC donor 1 [5]; [7]),transfection efficiency (hAMSC donor 1 [5]; [8]),transfection efficiency (hAMSC donor 1 [5]; [9]),transfection efficiency (hAMSC donor 2 [6]; [7]),transfection efficiency (hAMSC donor 2 [6]; [8]),transfection efficiency (hAMSC donor 2 [6]; [9]),transgenic luciferase activity (hAMSC donor 1 [3]; [9])
CC=CC(=O)N(CC)c1ccccc1C [Crotamiton],1.37 ± 0.26,1.09 ± 0.056,0.859 ± 0.1,1.13 ± 0.33,0.96 ± 0.2,1.11 ± 0.44,1.37 ± 0.52,0.44 ± 0.095,0.882 ± 0.52,0.18 ± 0.1,1.33 ± 0.37,1.36 ± 0.12,1.43 ± 0.26,0.98 ± 0.23,1.03 ± 0.056,1.1 ± 0.55,
Nc1nc(Cl)nc2c1ncn2[C@H]1C[C@H](O)[C@@H](CO)O1 [Cladribine],1.26 ± 0.2,1.03 ± 0.16,0.766 ± 0.14,1.15 ± 0.35,1.25 ± 0.45,1.39 ± 0.35,1.78 ± 0.33,0.596 ± 0.27,0.596 ± 0.22,0.15 ± 0.055,1.13 ± 0.25,1.77 ± 0.11,1.61 ± 0.73,1.1 ± 0.31,0.949 ± 0.16,1.21 ± 0.31,
C[C@@H]1C[C@H]2[C@@H]3C[C@H](F)C4=CC(=O)C(Cl)=C[C@]4(C)[C@@]3(F)[C@@H](O)C[C@]2(C)[C@@]1(O)C(=O)CO [Halometasone monohydrate],1.47 ± 0.2,1.29 ± 0.14,1.1 ± 0.15,1.72 ± 0.09,1.82 ± 0.086,3.37 ± 0.31,13.8 ± 13,3.04 ± 0.38,4.42 ± 0.28,0.654 ± 0.25,1.18 ± 0.36,1.41 ± 0.6,1.46 ± 0.26,2.03 ± 0.084,1.74 ± 0.085,1.02 ± 0.02,
CC(=O)OCC(=O)[C@@]1(O)CC[C@H]2[C@@H]3CCC4=CC(=O)CC[C@]4(C)[C@H]3[C@@H](O)C[C@@]21C [Cortisol 21-acetate],1.38 ± 0.048,2.2 ± 0.15,1.53 ± 0.15,1.19 ± 0.073,1.07 ± 0.058,1.03 ± 0.21,,0.952 ± 0.22,2.14 ± 0.038,2.96 ± 0.99,0.839 ± 0.09,1.12 ± 0.29,1.09 ± 0.25,1.18 ± 0.21,1.5 ± 0.27,1.39 ± 0.3,5.07 ± 1.3
Clc1ccc2nsnc2c1NC1=NCCN1 [Tizanidine hydrochloride],0.953 ± 0.032,1.08 ± 0.1,0.986 ± 0.06,0.941 ± 0.33,1.3 ± 0.17,2.08 ± 0.64,2.55 ± 0.74,0.41 ± 0.059,0.741 ± 0.12,0.0764 ± 0.011,1.1 ± 0.21,0.843 ± 0.14,0.848 ± 0.07,1.29 ± 0.13,1.19 ± 0.047,1.13 ± 0.23,
CC(=O)[C@H]1CC[C@H]2[C@@H]3C[C@H](C)C4=CC(=O)CC[C@]4(C)[C@H]3[C@@H](O)C[C@]12C [Medrysone],1.08 ± 0.086,1.27 ± 0.086,1.08 ± 0.12,1.33 ± 0.29,2.1 ± 0.1,3.75 ± 0.24,5.59 ± 2.4,0.902 ± 0.16,1.1 ± 0.21,0.219 ± 0.079,1.41 ± 0.41,1.24 ± 0.26,0.937 ± 0.12,1.57 ± 0.34,1.04 ± 0.14,1.21 ± 0.12,
CC[C@H]1OC(=O)[C@H](C)[C@@H](O[C@H]2C[C@@](C)(OC)[C@@H](O)[C@H](C)O2)[C@H](C)[C@@H](O[C@@H]2O[C@H](C)C[C@H](N(C)C)[C@H]2O)[C@](C)(O)C[C@@H](C)CN(C)[C@H](C)[C@@H](O)[C@]1(C)O [Azithromycin],1.14 ± 0.044,1.12 ± 0.18,1.07 ± 0.12,0.861 ± 0.24,0.926 ± 0.47,2.18 ± 0.29,2.85 ± 1.1,0.77 ± 0.14,3.3 ± 2,0.238 ± 0.28,1.21 ± 0.11,1.47 ± 0.29,1 ± 0.083,1.35 ± 0.13,1.01 ± 0.074,1.07 ± 0.1,
CNCCC(Oc1ccc(C(F)(F)F)cc1)c1ccccc1 (centres undefined) [Fluoxetine hydrochloride],1.43 ± 0.27,1.49 ± 0.22,1.49 ± 0.032,1.13 ± 0.083,1.12 ± 0.12,1.04 ± 0.086,,0.969 ± 0.13,0.953 ± 0.064,0.48 ± 0.078,0.736 ± 0.17,1.3 ± 0.28,0.777 ± 0.13,1 ± 0.18,1.18 ± 0.11,0.719 ± 0.14,0.292 ± 0.068
CCN1CC(CCN2CCOCC2)C(c2ccccc2)(c2ccccc2)C1=O (centres undefined) [Doxapram hydrochloride],0.957 ± 0.17,1 ± 0.13,0.995 ± 0.2,1.15 ± 0.056,1.1 ± 0.1,1.84 ± 0.56,2.12 ± 0.96,0.411 ± 0.25,0.442 ± 0.014,0.213 ± 0.058,1.3 ± 0.34,1.55 ± 0.75,0.914 ± 0.52,1.27 ± 0.17,1.02 ± 0.24,1.04 ± 0.13,
CCCN(CCC)S(=O)(=O)c1ccc(C(=O)O)cc1 [Probenecid],1.28 ± 0.16,1.41 ± 0.17,1.39 ± 0.084,1.13 ± 0.018,1.06 ± 0.069,1.12 ± 0.15,,0.586 ± 0.011,0.879 ± 0.19,0.525 ± 0.06,0.789 ± 0.11,1.42 ± 0.15,1.09 ± 0.086,0.811 ± 0.19,1.19 ± 0.038,1.15 ± 0.24,0.683 ± 0.28
CCOC(=O)C1=C(C)NC(C)=C(C(=O)OC)C1c1cccc(Cl)c1Cl (centres undefined) [Felodipine],1.39 ± 0.17,1.49 ± 0.072,0.997 ± 0.12,1.06 ± 0.075,0.981 ± 0.061,1.06 ± 0.033,,0.66 ± 0.16,0.788 ± 0.065,0.565 ± 0.38,0.785 ± 0.28,0.676 ± 0.096,1.49 ± 0.17,1 ± 0.18,1.23 ± 0.13,1.06 ± 0.087,1.49 ± 0.79
Cc1cnc(NC(=O)C2=C(O)c3ccccc3S(=O)(=O)N2C)s1 [Meloxicam],1.21 ± 0.17,1.15 ± 0.33,1.34 ± 0.064,1.03 ± 0.069,1.25 ± 0.16,1.12 ± 0.11,,0.681 ± 0.069,0.967 ± 0.049,0.46 ± 0.11,1 ± 0.44,1.6 ± 0.31,1.09 ± 0.079,0.974 ± 0.079,0.957 ± 0.047,0.87 ± 0.16,0.512 ± 0.031
CN1CCN(CC/C=C2/c3ccccc3Sc3ccc(S(=O)(=O)N(C)C)cc32)CC1 [Thiothixene],1.22 ± 0.073,1.5 ± 0.19,1.4 ± 0.043,1.08 ± 0.05,1.31 ± 0.2,1.56 ± 0.14,,0.797 ± 0.13,0.535 ± 0.32,0.389 ± 0.041,0.914 ± 0.42,1.02 ± 0.21,0.656 ± 0.081,0.932 ± 0.051,0.918 ± 0.21,0.458 ± 0.085,0.302 ± 0.08
CC1(C)S[C@@H]2[C@H](/N=C/N3CCCCCC3)C(=O)N2[C@H]1C(=O)O [Mecillinam],1.31 ± 0.22,1.17 ± 0.11,1.047 ± 0.01,1.2 ± 0.36,1.04 ± 0.22,1.96 ± 0.37,2.5 ± 1.2,0.51 ± 0.016,0.964 ± 0.12,0.325 ± 0.14,1.05 ± 0.25,1.44 ± 0.62,1.17 ± 0.18,1.25 ± 0.32,1.32 ± 0.17,1.24 ± 0.42,

# Structures from the list above that have nitrogen in an aromatic ring (3):
SMILES,Hoechst total cell count ratio (hAMSC donor 1 [1]; [7]),Hoechst total cell count ratio (hAMSC donor 1 [1]; [8]),Hoechst total cell count ratio (hAMSC donor 1 [1]; [9]),Hoechst total cell count ratio (hAMSC donor 2 [2]; [7]),Hoechst total cell count ratio (hAMSC donor 2 [2]; [8]),Hoechst total cell count ratio (hAMSC donor 2 [2]; [9]),transgenic luciferase activity (hAMSC donor 1 [3]; [8]),transgenic luciferase activity (hAMSC donor 2 [4]; [7]),transgenic luciferase activity (hAMSC donor 2 [4]; [8]),transgenic luciferase activity (hAMSC donor 2 [4]; [9]),transfection efficiency (hAMSC donor 1 [5]; [7]),transfection efficiency (hAMSC donor 1 [5]; [8]),transfection efficiency (hAMSC donor 1 [5]; [9]),transfection efficiency (hAMSC donor 2 [6]; [7]),transfection efficiency (hAMSC donor 2 [6]; [8]),transfection efficiency (hAMSC donor 2 [6]; [9]),transgenic luciferase activity (hAMSC donor 1 [3]; [9])
Nc1nc(Cl)nc2c1ncn2[C@H]1C[C@H](O)[C@@H](CO)O1 [Cladribine],1.26 ± 0.2,1.03 ± 0.16,0.766 ± 0.14,1.15 ± 0.35,1.25 ± 0.45,1.39 ± 0.35,1.78 ± 0.33,0.596 ± 0.27,0.596 ± 0.22,0.15 ± 0.055,1.13 ± 0.25,1.77 ± 0.11,1.61 ± 0.73,1.1 ± 0.31,0.949 ± 0.16,1.21 ± 0.31,
Clc1ccc2nsnc2c1NC1=NCCN1 [Tizanidine hydrochloride],0.953 ± 0.032,1.08 ± 0.1,0.986 ± 0.06,0.941 ± 0.33,1.3 ± 0.17,2.08 ± 0.64,2.55 ± 0.74,0.41 ± 0.059,0.741 ± 0.12,0.0764 ± 0.011,1.1 ± 0.21,0.843 ± 0.14,0.848 ± 0.07,1.29 ± 0.13,1.19 ± 0.047,1.13 ± 0.23,
Cc1cnc(NC(=O)C2=C(O)c3ccccc3S(=O)(=O)N2C)s1 [Meloxicam],1.21 ± 0.17,1.15 ± 0.33,1.34 ± 0.064,1.03 ± 0.069,1.25 ± 0.16,1.12 ± 0.11,,0.681 ± 0.069,0.967 ± 0.049,0.46 ± 0.11,1 ± 0.44,1.6 ± 0.31,1.09 ± 0.079,0.974 ± 0.079,0.957 ± 0.047,0.87 ± 0.16,0.512 ± 0.031

# Reference: the supplement of paper PMC7238544
